Results reported in the supplement of paper PMC12067093, “Discovery and optimisation of a covalent ligand for TRIM25 and its application to targeted protein ubiquitination” (Chemical Science, 2025).
This is one part of the list.

Protein sequences, listed by entry. Tags and fused reporters are not part of them. Lines headed by an entry give the natural chain unless they say otherwise; changes in a name come on top.
UniProt Q5TAX3: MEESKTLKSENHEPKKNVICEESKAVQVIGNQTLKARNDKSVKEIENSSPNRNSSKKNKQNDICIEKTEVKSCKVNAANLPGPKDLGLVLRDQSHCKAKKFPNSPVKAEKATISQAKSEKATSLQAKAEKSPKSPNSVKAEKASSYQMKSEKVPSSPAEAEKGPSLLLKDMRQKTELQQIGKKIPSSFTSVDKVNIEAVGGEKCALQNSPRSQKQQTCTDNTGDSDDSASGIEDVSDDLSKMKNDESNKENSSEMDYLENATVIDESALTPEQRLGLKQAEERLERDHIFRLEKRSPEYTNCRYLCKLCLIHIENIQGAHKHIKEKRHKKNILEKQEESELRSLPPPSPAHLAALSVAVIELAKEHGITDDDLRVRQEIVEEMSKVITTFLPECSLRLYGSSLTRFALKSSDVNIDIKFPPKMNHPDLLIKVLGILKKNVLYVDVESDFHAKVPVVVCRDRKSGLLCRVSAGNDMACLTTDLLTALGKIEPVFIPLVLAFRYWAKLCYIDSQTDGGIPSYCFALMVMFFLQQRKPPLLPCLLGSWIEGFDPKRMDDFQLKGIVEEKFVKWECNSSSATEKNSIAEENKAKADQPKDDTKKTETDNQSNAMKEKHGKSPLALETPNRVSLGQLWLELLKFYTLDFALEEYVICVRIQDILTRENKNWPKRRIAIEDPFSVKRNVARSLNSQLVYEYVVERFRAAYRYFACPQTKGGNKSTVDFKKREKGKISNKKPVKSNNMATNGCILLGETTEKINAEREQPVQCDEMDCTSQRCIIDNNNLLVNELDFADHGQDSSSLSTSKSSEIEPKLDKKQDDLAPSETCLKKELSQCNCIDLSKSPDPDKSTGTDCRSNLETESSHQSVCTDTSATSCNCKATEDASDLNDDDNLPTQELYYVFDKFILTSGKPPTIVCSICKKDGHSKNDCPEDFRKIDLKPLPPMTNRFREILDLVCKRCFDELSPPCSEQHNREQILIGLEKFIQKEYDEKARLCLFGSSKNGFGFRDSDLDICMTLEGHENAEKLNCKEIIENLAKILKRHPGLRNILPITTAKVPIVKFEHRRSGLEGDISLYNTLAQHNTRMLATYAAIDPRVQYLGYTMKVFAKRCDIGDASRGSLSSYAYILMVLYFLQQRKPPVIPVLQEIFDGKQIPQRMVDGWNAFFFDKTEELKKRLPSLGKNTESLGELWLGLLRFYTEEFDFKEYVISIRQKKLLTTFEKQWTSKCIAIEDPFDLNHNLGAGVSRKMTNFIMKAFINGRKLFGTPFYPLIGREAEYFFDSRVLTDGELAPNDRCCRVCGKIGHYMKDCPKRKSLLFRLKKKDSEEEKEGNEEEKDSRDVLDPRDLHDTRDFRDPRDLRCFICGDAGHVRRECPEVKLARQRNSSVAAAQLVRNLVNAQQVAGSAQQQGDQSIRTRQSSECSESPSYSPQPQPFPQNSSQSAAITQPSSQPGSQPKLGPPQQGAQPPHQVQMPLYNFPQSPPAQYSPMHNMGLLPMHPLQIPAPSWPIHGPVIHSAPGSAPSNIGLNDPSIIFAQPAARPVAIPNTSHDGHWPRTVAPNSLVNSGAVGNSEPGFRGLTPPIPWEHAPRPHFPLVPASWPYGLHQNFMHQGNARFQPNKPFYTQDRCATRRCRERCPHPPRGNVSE
UniProt Q14166: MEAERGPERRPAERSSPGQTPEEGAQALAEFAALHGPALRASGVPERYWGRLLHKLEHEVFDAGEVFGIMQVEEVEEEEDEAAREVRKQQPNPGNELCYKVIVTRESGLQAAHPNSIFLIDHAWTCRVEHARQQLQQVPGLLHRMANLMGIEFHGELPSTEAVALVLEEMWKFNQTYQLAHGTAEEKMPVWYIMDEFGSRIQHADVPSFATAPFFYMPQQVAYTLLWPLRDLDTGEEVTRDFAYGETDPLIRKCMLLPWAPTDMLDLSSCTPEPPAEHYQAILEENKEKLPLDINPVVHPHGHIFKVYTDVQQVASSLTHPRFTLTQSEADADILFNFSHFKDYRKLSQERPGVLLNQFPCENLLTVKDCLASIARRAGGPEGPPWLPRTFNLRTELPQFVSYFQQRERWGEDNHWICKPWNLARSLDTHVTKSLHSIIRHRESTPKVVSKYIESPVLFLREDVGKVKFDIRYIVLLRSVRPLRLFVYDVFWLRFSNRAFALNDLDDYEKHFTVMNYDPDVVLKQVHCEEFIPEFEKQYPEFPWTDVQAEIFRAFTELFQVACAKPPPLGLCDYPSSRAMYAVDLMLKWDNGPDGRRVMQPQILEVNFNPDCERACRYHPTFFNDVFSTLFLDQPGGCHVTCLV
UniProt P49815: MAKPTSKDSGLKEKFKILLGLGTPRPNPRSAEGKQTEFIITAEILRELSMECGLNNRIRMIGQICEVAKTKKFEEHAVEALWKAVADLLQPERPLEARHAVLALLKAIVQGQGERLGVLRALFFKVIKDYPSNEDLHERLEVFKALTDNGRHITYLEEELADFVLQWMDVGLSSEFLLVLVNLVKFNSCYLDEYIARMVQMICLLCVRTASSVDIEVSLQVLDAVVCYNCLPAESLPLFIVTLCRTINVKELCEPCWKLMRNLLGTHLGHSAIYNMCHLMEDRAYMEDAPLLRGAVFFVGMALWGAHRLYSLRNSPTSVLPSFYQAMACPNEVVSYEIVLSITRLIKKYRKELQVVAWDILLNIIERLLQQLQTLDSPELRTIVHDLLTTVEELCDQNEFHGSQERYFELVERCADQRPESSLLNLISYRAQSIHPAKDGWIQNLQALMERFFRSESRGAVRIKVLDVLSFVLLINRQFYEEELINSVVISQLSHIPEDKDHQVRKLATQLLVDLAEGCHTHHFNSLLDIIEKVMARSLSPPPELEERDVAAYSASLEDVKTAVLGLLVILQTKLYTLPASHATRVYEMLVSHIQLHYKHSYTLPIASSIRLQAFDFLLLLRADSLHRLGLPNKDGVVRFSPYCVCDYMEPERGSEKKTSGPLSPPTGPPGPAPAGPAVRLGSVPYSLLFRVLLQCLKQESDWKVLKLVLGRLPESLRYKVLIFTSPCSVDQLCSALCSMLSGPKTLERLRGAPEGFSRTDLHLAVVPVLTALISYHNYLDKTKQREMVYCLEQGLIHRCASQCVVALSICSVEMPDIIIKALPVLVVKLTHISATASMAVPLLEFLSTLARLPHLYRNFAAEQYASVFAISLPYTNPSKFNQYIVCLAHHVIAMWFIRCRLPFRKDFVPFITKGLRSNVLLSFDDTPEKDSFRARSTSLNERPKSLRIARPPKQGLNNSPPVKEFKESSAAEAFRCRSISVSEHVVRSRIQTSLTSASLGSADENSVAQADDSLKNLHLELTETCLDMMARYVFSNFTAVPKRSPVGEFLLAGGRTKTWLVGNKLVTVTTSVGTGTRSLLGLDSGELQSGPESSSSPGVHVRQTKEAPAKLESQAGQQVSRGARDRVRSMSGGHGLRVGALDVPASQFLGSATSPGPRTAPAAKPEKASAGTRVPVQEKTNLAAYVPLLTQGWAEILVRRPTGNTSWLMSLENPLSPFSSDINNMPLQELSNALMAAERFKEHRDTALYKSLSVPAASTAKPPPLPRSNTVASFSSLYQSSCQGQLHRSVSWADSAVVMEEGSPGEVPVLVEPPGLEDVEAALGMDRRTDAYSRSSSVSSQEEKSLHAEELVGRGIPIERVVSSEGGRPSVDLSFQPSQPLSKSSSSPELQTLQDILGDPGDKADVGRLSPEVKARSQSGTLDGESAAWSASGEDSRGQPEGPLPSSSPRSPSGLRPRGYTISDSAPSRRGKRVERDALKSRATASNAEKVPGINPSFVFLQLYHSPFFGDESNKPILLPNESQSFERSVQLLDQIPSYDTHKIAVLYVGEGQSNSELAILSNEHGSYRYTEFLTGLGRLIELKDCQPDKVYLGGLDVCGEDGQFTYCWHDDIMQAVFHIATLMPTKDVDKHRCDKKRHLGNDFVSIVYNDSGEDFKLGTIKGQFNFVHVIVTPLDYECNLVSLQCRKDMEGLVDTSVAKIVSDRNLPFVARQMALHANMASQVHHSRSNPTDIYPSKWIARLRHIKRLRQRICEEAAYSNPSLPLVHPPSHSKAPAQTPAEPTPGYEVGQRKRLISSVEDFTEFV
UniProt Q6PGP7, whole entry, looked up: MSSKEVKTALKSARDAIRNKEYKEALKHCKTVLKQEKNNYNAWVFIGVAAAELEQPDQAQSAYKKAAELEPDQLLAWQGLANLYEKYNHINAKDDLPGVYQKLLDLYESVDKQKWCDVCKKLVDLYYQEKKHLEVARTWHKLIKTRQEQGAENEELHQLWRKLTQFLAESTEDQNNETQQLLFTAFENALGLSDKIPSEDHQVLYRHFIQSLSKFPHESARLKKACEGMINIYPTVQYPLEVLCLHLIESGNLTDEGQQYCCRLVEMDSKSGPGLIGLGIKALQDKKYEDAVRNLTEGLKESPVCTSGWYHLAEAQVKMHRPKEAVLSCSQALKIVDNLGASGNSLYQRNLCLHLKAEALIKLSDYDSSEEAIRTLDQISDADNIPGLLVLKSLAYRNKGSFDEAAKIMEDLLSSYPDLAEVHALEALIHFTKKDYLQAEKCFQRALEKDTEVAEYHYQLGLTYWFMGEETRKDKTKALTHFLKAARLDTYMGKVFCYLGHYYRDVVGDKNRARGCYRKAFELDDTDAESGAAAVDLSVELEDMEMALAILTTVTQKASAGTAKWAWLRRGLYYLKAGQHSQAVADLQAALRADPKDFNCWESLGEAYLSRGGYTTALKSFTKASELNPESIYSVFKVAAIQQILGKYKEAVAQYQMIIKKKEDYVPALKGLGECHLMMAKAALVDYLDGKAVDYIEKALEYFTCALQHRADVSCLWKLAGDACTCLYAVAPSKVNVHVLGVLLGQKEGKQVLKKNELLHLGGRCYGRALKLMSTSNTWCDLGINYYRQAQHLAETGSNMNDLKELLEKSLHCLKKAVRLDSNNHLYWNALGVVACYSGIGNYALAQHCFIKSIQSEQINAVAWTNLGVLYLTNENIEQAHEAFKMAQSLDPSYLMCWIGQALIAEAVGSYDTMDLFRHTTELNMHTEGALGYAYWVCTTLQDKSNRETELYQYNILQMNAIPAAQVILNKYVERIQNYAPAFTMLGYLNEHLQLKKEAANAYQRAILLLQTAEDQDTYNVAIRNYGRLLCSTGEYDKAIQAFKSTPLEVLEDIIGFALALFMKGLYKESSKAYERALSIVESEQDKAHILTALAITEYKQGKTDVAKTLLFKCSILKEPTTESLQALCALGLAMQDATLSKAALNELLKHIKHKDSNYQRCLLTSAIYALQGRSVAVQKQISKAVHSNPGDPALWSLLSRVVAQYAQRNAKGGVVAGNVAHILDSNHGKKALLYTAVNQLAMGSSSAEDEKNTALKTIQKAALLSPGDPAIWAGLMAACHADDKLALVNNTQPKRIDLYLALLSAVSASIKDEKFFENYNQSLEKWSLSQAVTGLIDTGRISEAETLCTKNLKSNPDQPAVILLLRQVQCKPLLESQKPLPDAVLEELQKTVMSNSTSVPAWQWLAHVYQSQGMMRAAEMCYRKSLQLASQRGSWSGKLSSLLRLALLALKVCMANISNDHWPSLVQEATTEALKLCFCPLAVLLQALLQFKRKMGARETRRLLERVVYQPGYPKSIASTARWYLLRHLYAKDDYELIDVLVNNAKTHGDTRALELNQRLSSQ
UniProt Q96CW5, whole entry, looked up: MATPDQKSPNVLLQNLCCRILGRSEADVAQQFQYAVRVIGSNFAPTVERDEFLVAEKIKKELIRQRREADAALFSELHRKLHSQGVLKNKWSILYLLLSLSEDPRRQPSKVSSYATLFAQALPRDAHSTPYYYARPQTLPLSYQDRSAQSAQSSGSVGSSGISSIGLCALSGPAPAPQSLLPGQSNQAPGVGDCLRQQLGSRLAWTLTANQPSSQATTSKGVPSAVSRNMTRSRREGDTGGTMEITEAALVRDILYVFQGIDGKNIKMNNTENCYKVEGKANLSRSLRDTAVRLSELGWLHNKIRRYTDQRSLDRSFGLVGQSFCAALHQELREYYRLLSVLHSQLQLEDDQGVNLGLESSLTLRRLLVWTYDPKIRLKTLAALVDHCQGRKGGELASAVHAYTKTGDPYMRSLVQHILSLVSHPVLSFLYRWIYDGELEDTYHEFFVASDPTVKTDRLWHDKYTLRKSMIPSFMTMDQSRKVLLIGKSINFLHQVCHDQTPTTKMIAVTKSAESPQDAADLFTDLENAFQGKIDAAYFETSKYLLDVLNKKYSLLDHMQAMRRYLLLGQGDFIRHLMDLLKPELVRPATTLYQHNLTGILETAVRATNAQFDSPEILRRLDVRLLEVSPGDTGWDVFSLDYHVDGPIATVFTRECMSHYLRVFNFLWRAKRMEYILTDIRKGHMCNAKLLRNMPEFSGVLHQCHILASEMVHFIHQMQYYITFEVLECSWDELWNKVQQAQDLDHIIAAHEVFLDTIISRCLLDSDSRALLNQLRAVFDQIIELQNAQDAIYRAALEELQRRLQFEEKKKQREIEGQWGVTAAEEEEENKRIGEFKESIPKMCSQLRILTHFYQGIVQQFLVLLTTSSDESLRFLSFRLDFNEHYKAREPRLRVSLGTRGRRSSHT

Compound: Cc1cc(ccc1-c1ccccc1)C(=O)N1CCCN(CC1)C(=O)CCl [compound 10]
Test: probe-labelled cysteine peptide fold change vs DMSO (competition) (log2 fold change); higher = less target engagement (more negative = stronger competition)
Conditions: THP-1, incubation time: 4 h
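Note: competitive profiling in live THP-1 cells: cysteine peptides tagged with an iodoacetamide desthiobiotin (IA-DTB) probe, intensity after compound treatment relative to DMSO-treated cells.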

Row | Target | probe-labelled cysteine peptide fold change (10 µM) | probe-labelled cysteine peptide fold change (50 µM)
1 | TSTA3_Q13630_163_AYFQQYGCTFTAVIPTNVFGPHDNFNIEDGHVLPGLIHK (UniProt Q13630) | 0.308 | 0.41
2 | TRRAP_Q9Y4A5_3535_IYPYLVMNDACLTESR (UniProt Q9Y4A5) | -0.136 | -0.0829
3 | TUT4_Q5TAX3_994_LCLFGSSK (UniProt Q5TAX3) | -0.0277 | -0.158
4 | TTLL12_Q14166_612_RVMQPQILEVNFNPDCER (UniProt Q14166) | 0.0816 | -0.189
5 | TSC2_P49815_1026_NLHLELTETCLDMMAR (UniProt P49815) | 0.171 | -0.0622
6 | TTC38_Q5R3I4_429_DVFNQLLIHAALNCTSSVHK (UniProt Q5R3I4) | -0.0993 | -0.394
7 | TTLL12_Q14166_126_ESGLQAAHPNSIFLIDHAWTCR (UniProt Q14166) | 0.0995 | 0.0514
8 | TSR1_Q2NL82_329_DPDMAMEICATDAVDDMEEGLK (UniProt Q2NL82) | -0.474 | -0.249
9 | TRNAU1AP_Q9NX07_157_ALTECQGAVGLGSKPVR (UniProt Q9NX07) | -0.212 | -0.171
10 | TUT4_Q5TAX3_966_CFDELSPPCSEQHNR (UniProt Q5TAX3) | -0.0735 | -0.525
11 | TSR1_Q2NL82_618_AKEELIFHCGFR (UniProt Q2NL82) | 0.0728 | 0.00431
12 | TRRAP_Q9Y4A5_949_AIETALDCLK (UniProt Q9Y4A5) | 0.183 | 0.0005
13 | TTC37_Q6PGP7_715_ADVSCLWK (UniProt Q6PGP7) | -0.171 | -0.0251
14 | TUBA4A_P68366_54_TIGGGDDSFTTFFCETGAGK (UniProt P68366) | -0.0287 | -0.345
15 | TUBB6_Q9BUF5_124+127_ECEHCDCLQGFQLTHSLGGGTGSGMGTLLISK (UniProt Q9BUF5) | 0.114 | -0.886
16 | TTF2_Q9UNY4_785_CSPFDEFNLWR (UniProt Q9UNY4) | 0.12 | 0.182
17 | TSSC4_Q9Y5U2_99_SRDIFDCLEGAAR (UniProt Q9Y5U2) | -0.38 | -0.388
18 | TXLNG_Q9NUQ3_127_TDPPDGQQDSECNR (UniProt Q9NUQ3) | -0.25 | -0.355
19 | TUBGCP3_Q96CW5_497_SINFLHQVCHDQTPTTK (UniProt Q96CW5) | -0.0597 | 0.247

Row | Target | probe-labelled cysteine peptide fold change (10 µM) | probe-labelled cysteine peptide fold change (50 µM)
20 | TXNIP_Q9H3M7_170_VSCMFIPDGR (UniProt Q9H3M7) | 0.0303 | -1.26
21 | TRRAP_Q9Y4A5_3758_CFAQPNFK (UniProt Q9Y4A5) | 0.105 | 0.125
22 | TSC2_P49815_519_KLATQLLVDLAEGCHTHHFNSLLDIIEK (UniProt P49815) | -0.0466 | -0.372
23 | TTC14_Q96N46_165_DIAHLEITALCPLR (UniProt Q96N46) | 0.0492 | 0.0822
24 | TSEN54_Q7Z6J9_338_ETDAESWCQK (UniProt Q7Z6J9) | -0.24 | -0.172
25 | TXNDC17_Q9BRA2_69_HISEGCVFIYCQVGEK (UniProt Q9BRA2) | -0.0351 | -0.0869
26 | TUBGCP3_Q96CW5_388_TLAALVDHCQGRK (UniProt Q96CW5) | -0.034 | -0.0661
27 | TTC37_Q6PGP7_352_NLCLHLK (UniProt Q6PGP7) | 0.0369 | -0.111
28 | TRPM7_Q96QT4_200_ICTIGIAPWGVIENR (UniProt Q96QT4) | 0.326 | 0.211
29 | TSR1_Q2NL82_126_ISLPEAMQLLQDRDTGTVHLNELGNTQNFMLLCPR (UniProt Q2NL82) | -0.176 | -0.563
30 | TRMU_O75648_109_FSCFFHYAVDNLGADAIATGHYAR (UniProt O75648) | -0.0238 | -0.352
31 | TSTA3_Q13630_112_KVVSCLSTCIFPDK (UniProt Q13630) | -0.1 | -0.449
32 | TTC17_Q96AE7_340_HAVLCQQK (UniProt Q96AE7) | -0.156 | 0.282
33 | TXNDC5_Q8NBS9_121+128_VDCTAHSDVCSAQGVR (UniProt Q8NBS9) | -0.369 | -0.366
34 | TRRAP_Q9Y4A5_852_TLELCVDNLQPDFLYDHIQPVR (UniProt Q9Y4A5) | -0.0635 | 0.262
35 | TTC37_Q6PGP7_1280_AALLSPGDPAIWAGLMAACHADDK (UniProt Q6PGP7) | -0.081 | 0.143
36 | TRMT61B_Q9BVS5_396_ISEVIVRDWLVCLAK (UniProt Q9BVS5) | 0.164 | -0.0885
37 | TTC37_Q6PGP7_1422_AAEMCYR (UniProt Q6PGP7) | 0.00584 | 0.0614
38 | TTI2_Q6NXR4_36_ILHCLARPEAR (UniProt Q6NXR4) | 0.126 | -0.203
